Measured values: the supplement of paper PMC11732987, “Enantioselective OTUD7B fragment discovery through chemoproteomics screening and high-throughput optimisation” (Communications Chemistry, 2025)
The other results are listed elsewhere or left out. The data scatter; read single values as rough.

The chains behind the UniProt entries cited, without tags or fusion partners. Where a name states a change or a piece, a line headed by the entry shows the natural chain unless it says otherwise. Residues count along the entry.
UniProt Q9UI43: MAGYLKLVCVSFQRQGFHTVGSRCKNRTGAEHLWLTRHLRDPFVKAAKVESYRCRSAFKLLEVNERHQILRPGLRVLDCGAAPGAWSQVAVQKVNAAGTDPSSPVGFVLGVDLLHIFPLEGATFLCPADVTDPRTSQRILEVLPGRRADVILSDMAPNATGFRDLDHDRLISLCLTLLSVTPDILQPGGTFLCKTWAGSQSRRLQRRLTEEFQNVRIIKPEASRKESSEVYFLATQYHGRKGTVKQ
UniProt Q8N6R0, 385-409: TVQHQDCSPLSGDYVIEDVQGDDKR
UniProt Q99550, 1052-1071: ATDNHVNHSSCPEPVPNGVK
UniProt Q96PC5: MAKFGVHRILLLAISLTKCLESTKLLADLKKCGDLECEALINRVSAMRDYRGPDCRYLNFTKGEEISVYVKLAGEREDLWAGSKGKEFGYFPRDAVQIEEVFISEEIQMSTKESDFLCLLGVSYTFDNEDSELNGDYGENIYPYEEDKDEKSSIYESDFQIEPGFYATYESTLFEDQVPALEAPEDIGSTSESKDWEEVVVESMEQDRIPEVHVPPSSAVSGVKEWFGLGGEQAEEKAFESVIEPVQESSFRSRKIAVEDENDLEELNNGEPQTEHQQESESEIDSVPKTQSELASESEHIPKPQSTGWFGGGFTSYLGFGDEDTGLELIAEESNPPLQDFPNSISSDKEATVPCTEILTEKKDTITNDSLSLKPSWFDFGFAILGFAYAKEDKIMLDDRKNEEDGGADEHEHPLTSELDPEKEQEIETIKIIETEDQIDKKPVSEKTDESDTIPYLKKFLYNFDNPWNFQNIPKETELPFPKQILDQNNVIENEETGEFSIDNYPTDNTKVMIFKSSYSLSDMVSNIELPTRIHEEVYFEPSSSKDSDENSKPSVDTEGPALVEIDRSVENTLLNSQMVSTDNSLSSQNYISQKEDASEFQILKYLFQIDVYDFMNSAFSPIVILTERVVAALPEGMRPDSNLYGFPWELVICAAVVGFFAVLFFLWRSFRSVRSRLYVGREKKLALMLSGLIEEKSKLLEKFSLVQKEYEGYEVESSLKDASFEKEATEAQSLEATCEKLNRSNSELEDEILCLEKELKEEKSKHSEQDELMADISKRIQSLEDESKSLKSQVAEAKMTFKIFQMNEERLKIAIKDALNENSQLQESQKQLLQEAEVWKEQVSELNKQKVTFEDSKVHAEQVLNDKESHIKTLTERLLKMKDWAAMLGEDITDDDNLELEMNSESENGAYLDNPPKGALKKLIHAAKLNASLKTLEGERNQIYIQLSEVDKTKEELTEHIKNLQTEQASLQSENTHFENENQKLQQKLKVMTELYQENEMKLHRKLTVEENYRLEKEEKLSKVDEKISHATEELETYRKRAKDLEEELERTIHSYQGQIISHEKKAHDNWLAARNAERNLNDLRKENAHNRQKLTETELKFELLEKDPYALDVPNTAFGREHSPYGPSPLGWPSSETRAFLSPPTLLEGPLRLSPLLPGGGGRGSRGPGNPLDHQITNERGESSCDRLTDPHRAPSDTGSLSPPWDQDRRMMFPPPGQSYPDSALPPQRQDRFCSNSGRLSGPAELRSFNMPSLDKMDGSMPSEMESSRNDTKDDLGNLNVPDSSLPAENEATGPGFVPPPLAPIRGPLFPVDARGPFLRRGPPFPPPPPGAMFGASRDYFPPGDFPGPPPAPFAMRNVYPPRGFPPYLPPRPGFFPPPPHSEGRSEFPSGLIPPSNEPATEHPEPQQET
UniProt O60244: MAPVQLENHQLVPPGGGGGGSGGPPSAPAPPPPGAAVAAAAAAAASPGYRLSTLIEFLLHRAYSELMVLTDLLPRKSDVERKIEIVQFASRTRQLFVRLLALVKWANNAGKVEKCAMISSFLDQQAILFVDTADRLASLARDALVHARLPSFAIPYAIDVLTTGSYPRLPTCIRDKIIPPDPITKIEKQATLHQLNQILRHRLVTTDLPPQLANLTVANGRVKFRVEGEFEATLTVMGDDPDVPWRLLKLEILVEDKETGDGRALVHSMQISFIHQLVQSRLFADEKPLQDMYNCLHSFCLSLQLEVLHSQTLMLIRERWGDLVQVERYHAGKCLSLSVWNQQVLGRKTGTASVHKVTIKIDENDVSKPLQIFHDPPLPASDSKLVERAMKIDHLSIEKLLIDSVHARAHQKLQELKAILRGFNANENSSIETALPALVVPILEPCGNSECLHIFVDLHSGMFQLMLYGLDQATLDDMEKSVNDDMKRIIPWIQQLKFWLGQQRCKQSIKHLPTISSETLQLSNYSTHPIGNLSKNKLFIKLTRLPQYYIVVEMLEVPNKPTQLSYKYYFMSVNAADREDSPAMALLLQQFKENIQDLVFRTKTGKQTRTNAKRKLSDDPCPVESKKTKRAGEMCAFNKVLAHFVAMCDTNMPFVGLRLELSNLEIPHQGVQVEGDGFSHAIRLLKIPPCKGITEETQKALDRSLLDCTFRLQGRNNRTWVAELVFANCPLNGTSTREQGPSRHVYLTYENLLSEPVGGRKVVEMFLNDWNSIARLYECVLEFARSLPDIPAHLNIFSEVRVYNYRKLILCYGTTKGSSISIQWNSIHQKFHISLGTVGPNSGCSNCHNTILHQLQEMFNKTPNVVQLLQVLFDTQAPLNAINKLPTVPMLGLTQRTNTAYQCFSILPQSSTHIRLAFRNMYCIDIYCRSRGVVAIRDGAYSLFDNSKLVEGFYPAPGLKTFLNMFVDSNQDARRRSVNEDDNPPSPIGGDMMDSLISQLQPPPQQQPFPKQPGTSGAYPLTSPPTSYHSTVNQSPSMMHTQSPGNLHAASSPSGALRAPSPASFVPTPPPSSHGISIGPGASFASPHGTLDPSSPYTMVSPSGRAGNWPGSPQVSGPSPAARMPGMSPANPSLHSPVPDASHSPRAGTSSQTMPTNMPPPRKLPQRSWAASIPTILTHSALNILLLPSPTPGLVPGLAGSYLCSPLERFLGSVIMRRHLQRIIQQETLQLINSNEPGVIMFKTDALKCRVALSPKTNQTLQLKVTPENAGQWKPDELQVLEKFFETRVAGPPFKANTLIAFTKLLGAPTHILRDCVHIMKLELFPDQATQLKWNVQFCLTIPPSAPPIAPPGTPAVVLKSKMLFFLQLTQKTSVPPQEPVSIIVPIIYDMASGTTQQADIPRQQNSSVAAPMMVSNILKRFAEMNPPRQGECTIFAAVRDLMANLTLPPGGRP
UniProt Q8IWI9: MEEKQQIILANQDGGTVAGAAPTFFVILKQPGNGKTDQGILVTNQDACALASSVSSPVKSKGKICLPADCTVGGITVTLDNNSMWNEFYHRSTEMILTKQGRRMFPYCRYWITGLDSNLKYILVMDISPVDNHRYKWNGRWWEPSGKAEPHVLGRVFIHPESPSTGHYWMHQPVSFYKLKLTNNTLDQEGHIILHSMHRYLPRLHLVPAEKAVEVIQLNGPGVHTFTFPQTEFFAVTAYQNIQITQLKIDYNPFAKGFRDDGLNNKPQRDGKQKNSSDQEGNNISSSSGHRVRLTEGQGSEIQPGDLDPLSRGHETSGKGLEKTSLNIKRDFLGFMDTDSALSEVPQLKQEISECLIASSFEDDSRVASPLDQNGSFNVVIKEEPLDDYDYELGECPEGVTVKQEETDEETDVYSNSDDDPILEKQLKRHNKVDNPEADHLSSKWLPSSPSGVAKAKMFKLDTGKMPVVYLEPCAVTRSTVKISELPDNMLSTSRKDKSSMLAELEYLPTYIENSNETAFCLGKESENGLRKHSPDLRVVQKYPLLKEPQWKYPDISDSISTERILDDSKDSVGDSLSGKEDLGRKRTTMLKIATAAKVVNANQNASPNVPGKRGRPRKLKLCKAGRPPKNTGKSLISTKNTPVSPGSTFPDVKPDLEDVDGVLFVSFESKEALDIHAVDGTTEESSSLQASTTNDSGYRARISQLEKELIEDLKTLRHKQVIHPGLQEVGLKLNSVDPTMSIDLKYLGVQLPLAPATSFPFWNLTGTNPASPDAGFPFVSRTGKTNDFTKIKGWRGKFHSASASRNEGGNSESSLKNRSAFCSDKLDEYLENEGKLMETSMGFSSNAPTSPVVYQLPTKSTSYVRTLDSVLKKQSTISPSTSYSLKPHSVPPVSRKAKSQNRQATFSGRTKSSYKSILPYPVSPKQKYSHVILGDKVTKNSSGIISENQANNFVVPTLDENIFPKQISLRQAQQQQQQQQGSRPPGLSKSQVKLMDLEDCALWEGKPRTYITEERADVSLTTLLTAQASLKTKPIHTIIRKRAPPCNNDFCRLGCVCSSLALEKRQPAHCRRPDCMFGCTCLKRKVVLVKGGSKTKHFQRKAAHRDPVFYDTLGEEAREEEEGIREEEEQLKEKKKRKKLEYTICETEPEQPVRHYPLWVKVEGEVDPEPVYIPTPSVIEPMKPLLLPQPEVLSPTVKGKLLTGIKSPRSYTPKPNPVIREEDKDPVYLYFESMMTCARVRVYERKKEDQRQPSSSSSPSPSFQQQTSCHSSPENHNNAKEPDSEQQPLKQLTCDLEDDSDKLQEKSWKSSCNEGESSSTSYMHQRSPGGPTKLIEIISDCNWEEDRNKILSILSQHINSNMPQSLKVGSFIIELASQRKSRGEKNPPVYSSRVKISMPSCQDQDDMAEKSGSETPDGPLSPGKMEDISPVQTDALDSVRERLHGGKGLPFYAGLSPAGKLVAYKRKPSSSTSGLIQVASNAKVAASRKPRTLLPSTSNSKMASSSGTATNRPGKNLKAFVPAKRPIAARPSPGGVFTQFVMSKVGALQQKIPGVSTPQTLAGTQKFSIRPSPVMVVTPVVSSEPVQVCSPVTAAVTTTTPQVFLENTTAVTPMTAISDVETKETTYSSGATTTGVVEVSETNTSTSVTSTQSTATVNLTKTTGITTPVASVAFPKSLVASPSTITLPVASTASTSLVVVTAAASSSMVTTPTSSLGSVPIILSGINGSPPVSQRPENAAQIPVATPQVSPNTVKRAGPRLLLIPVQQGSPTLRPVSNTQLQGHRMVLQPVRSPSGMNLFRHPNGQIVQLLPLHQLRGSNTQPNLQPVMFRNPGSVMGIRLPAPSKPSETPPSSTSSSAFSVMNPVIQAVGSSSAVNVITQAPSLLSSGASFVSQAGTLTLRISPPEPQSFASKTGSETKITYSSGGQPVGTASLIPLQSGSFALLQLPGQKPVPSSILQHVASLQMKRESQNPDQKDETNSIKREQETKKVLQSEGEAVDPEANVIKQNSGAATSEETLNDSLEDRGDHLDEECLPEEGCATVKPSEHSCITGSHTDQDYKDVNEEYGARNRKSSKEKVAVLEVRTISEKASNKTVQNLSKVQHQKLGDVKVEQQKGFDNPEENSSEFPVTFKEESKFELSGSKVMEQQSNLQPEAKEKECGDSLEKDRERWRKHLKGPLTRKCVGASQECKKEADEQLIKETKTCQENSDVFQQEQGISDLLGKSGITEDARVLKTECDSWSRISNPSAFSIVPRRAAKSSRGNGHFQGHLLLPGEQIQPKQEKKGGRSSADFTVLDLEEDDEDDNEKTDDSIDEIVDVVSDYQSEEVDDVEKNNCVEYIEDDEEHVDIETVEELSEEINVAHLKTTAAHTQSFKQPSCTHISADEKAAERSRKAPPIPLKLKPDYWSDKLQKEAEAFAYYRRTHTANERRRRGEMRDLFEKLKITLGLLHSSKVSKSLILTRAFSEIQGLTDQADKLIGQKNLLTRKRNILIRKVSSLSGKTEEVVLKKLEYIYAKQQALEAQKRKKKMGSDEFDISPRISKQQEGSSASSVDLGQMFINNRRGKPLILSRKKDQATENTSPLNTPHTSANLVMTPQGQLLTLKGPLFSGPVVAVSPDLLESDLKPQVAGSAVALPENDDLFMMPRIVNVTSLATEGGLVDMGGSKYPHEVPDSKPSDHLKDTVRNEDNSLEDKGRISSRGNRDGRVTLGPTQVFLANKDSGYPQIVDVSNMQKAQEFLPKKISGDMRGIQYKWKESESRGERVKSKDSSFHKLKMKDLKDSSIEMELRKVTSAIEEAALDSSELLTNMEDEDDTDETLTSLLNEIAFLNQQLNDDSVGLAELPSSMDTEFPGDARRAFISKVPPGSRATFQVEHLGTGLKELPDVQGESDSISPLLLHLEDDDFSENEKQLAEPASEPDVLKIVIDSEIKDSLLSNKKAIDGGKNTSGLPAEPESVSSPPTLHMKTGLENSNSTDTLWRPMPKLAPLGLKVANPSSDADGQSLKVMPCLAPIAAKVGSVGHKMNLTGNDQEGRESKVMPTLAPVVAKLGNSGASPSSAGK
UniProt Q9Y3A3: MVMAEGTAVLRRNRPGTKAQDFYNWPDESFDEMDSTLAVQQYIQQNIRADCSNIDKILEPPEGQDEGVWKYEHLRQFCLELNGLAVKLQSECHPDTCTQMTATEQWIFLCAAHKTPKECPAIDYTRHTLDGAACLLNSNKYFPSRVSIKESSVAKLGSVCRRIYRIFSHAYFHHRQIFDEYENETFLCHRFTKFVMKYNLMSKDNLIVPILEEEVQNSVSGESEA
UniProt Q9Y3C7: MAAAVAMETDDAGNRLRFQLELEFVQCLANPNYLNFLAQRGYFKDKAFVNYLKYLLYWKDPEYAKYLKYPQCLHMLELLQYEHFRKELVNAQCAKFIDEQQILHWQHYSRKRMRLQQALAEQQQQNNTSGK
UniProt Q8IVH4, 174-194: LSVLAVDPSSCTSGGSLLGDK

Assays:
[1] = compound: ClCC(=O)N[C@@H]1CCCc2ccccc12; assay: log2 mean competition ratio of IA-DTB cysteine labelling (DMSO/compound) (log2 ratio); higher = stronger cysteine engagement by compound; conditions: treatment time: 4 h, cell line lysate: HEK293T
Description: (§1)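 IA-DTB competitive cysteine chemoproteomics in HEK293T RIPA lysate. Lysates were treated with compound 29 or 30 at 50 or 200 µM for 4 h, then IA-DTB (500 µM, 1 h), trypsin-digested, NeutrAvidin-enriched and analysed by diaPASEF. Competition ratio = intensity DMSO / intensity compound (n=4 treated, n=64 DMSO); binding: mean log2 CR ≥ 1 and p ≤ 0.05 plus QC filters. Target is the cysteine site.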

[2] = compound: ClCC(=O)N[C@H]1CCCc2ccccc12; assay: as above; conditions: treatment time: 4 h, cell line lysate: HEK293T
Description: as §1

| Target | log2 mean competition ratio ([1]; 50 µM) | log2 mean competition ratio ([1]; 200 µM) | log2 mean competition ratio ([2]; 50 µM) | log2 mean competition ratio ([2]; 200 µM) |
| --- | --- | --- | --- | --- |
| MDN1 C3985 (UniProt Q9NU22) | 0.149 | 0.218 | 0.0177 | 0.148 |
| MRM2 C79 (UniProt Q9UI43) | 0.136 | 0.0688 | 0.737 | 0.192 |
| MIEF2 C233 | -0.0362 | -0.0611 | 0.06 | 0.00812 |
| MDN1 C2030 (UniProt Q9NU22) | 0.275 | -0.612 | -0.0326 | -0.515 |
| MED12 C1287 (UniProt Q93074) | 0.0392 | -0.172 | 0.044 | 0.0798 |
| MMACHC C182 (UniProt Q9Y4U1) | 0.111 | -0.338 | 0.0216 | -0.137 |
| MIDEAS C16, A0A1C7CYX1 | 0.175 | 0.306 | -0.0985 | 0.156 |
| MID1 C266 (UniProt O15344) | -0.57 | 0.334 | 0.0684 | 0.0271 |
| METTL13 C391 (UniProt Q8N6R0) | -0.367 | -0.149 | -0.45 | -0.12 |
| MPHOSPH9 C910 (UniProt Q99550) | 0.1 | 0.0488 | 0.0581 | -0.145 |
| MIS18BP1 C686 | -0.169 | 0.0407 | -0.0141 | 0.0231 |
| METTL8 C146 (UniProt Q9H825) | -0.169 | -0.0697 | -0.29 | -0.181 |
| MDH1 C137 (UniProt P40925) | -0.259 | 0.292 | 0.097 | 0.645 |
| MED17 C15 (UniProt Q9NVC6) | -0.16 | -0.295 | 0.0965 | -0.0945 |
| MRC2 C521 (UniProt Q9UBG0) | 0.261 | 0.152 | -0.0917 | -0.0106 |
| MIA2 C1236 (UniProt Q96PC5) | 0.197 | 0.00197 | 0.0645 | 0.216 |
| MGAT1 C303 (UniProt P26572) | 0.082 | -0.0156 | -0.376 | 0.0202 |
| MED14 C635 (UniProt O60244) | 0.149 | 0.265 | 0.143 | 0.29 |
| MIDEAS C502, A0A1C7CYX1 | 0.148 | -0.0915 | 0.152 | -0.0459 |
| MORC3 C446 (UniProt Q14149) | -0.403 | 0.0789 | -0.105 | -0.0518 |
| MGA C2241 (UniProt Q8IWI9) | 0.173 | 0.259 | 0.134 | 0.334 |
| MON2 C1453 (UniProt Q7Z3U7) | 0.245 | 0.0339 | 0.00706 | 0.163 |
| MON1A C465 (UniProt Q86VX9) | -0.153 | -0.543 | 0.101 | -0.312 |
| MOB3A C186 (UniProt Q96BX8) | 0.228 | -0.2 | -0.0105 | -0.332 |

Part of the list above, reduced to log2 mean competition ratio ([1]; 200 µM) and log2 mean competition ratio ([1]; 50 µM):
Target	log2 mean competition ratio ([1]; 200 µM)	log2 mean competition ratio ([1]; 50 µM)
MGA C2241 (UniProt Q8IWI9)	0.259	0.173
MON2 C1453 (UniProt Q7Z3U7)	0.0339	0.245

More entries:

| Target | log2 mean competition ratio ([1]; 50 µM) | log2 mean competition ratio ([1]; 200 µM) | log2 mean competition ratio ([2]; 50 µM) | log2 mean competition ratio ([2]; 200 µM) |
| --- | --- | --- | --- | --- |
| METTL6 C256 (UniProt Q8TCB7) | -0.118 | 0.147 | 0.0752 | 0.139 |
| MED22 C112 (UniProt Q15528) | -0.238 | 0.0345 | -0.243 | 0.312 |
| MOB4 C134 (UniProt Q9Y3A3) | 0.172 | -0.0118 | 0.0656 | -0.0457 |
| MFN2 C390 (UniProt O95140) | -0.277 | 0.418 | -0.165 | 0.392 |
| MKNK1 C231 (UniProt Q9BUB5) | -0.219 | -0.073 | -0.675 | 0.0618 |
| MPV17L2 C198 (UniProt Q567V2) | -0.104 | -0.167 | -0.357 | -0.0102 |
| MIS12 C133 (UniProt Q9H081) | 0.0219 | -0.223 | 0.387 | 0.0475 |
| METTL13 C652 (UniProt Q8N6R0) | -0.468 | -0.0326 | -0.647 | -0.161 |
| MIS18BP1 C528 | -0.0501 | -0.125 | 0.00476 | 0.165 |
| MED31 C93 (UniProt Q9Y3C7) | -0.175 | 0.0217 | -0.0712 | 0.0578 |
| MORC3 C744 (UniProt Q14149) | -0.0875 | 0.533 | -0.0393 | -0.193 |
| MEPCE C54 (UniProt Q7L2J0) | 0.0176 | -0.114 | -0.0783 | -0.0977 |
| MPDZ C297 (UniProt O75970) | -0.164 | 0.000221 | 0.189 | 0.0374 |
| MGA C1295 (UniProt Q8IWI9) | 0.173 | 0.244 | -0.293 | -0.151 |
| MGA C1342 (UniProt Q8IWI9) | 0.00524 | 0.23 | -0.0145 | 0.0672 |
| MICALL1 C801 (UniProt Q8N3F8) | -0.212 | -0.0848 | -0.308 | -0.0317 |
| MID1 C580 (UniProt O15344) | 0.275 | 0.104 | 0.146 | 0.115 |
| MIS18A C231 (UniProt Q9NYP9) | 0.0736 | 0.169 | 0.595 | 0.186 |
| MKLN1 C560 (UniProt Q9UL63) | -0.0569 | -0.3 | -0.0383 | 0.0526 |
| MIPEP C142 (UniProt Q99797) | -0.389 | 0.137 | -0.364 | 0.0781 |
| MID1IP1 C5 (UniProt Q9NPA3) | -0.036 | 0.0516 | -0.285 | 0.433 |
| MFN1 C681 (UniProt Q8IWA4) | -0.142 | 0.0529 | -0.651 | -0.0615 |
| MMS19 C549 (UniProt Q96T76) | -0.292 | 0.454 | -0.286 | 0.347 |
| MMAA C184 (UniProt Q8IVH4) | -0.14 | 0.0193 | 0.113 | 0.144 |
